Experimental data reported in paper PMC5717063.
No constants are given. Whether binding was seen depends on the method and setting. Binding can be weak; no strength is given. Sequences can lack the tags named with a protein.

Experiments:
[1] = target: HSP60/HSP10 complex (porcine); test: protease protection (trypsin sensitivity assay); heat-denatured rhodanese with HSP60/HSP10 and GTP-AlFx; samples at 1 min or 60 min, 10 ug/ml trypsin for 3 min; SDS-PAGE; both purified
[2] = target: HSP60/HSP10 complex (porcine); test: protease protection (trypsin sensitivity assay); heat-denatured rhodanese with HSP60/HSP10 and ATP; samples at 1 min or 60 min, 10 ug/ml trypsin for 3 min; SDS-PAGE; both purified
[3] = target: HSP60/HSP10 complex (porcine); test: protease protection (trypsin sensitivity assay); heat-denatured rhodanese with HSP60/HSP10 and ATP-AlFx; samples at 1 min or 60 min, 10 ug/ml trypsin for 3 min; SDS-PAGE; both purified

Measured: binding

B1: His-tagged rhodanese (heat-denatured) (enzyme, UniProt P00586 1-297)
chain: MVHQVLYRALVSTKWLAESVRAGKVGPGLRVLDASWYSPGTREARKEYLERHVPGASFFDIEECRDKASPYEVMLPSEAGFADYVGSLGISNDTHVVVYDGDDLGSFYAPRVWWMFRVFGHRTVSVLNGGFRNWLKEGHPVTSEPSRPEPAIFKATLNRSLLKTYEQVLENLESKRFQLVDSRAQGRYLGTQPEPDAVGLDSGHIRGSVNMPFMNFLTEDGFEKSPEELRAMFEAKKVDLTKPLIATCRKGVTACHIALAAYLCGKPDVAIYDGSWFEWFHRAPPETWVSQGKGGKA
binds: [1] | [2] | [3]
